# At least one compound was matched to its structure with a doubt left.
# What was measured:
# [1] = test system: anagen (growing) hairs of scalp; assay: Clinical study #2, anagen hair count; assay type: in vivo, human; details: versus vehicle (minoxidil: versus baseline and vehicle), week 8
# Text: (§1) Subjects have the imaging sites located and tattoos placed within the imaging sites to mark the area that will be used for image capture. Three days post-tattoo placement, subjects will begin the pretreatment phase during which they applied their pretreatment products on the designated side of their scalp (left/right) for 11 days as a way of training subjects on the tonic application procedures. After the pretreatment phase has been completed, qualified subjects begin the 16-week treatment phase. Within each treatment group, left/right product assignments are randomized (tonic product and vehicle). In the first study subjects applied the assigned tonic product to the designated side of the scalp twice a day. The morning before each site visit, subjects wash and dry their hair and refrain from applying their test products and any styling aides until after their study visit has been completed. Subjects are instructed to wash hair at least every other day with a standard 2-in-1 shampoo during the entire washout and treatment phases. In the second study, after the pretreatment phase has been completed, subjects had their hair washed using the standard shampoo (½ head washing procedure) by a trained operator and blown dry by themselves. […]
# [2] = test system: telogen (resting) hairs of scalp; assay: Clinical study #2, telogen hair count; assay type: in vivo, human; details: versus vehicle (minoxidil: versus baseline and vehicle), week 8
# Text: as §1
smiles,measurement,setting,value
"Nc1cc(N2CCCCC2)nc(N)[n+]1[O-] [Minoxidil, reference compound]",number of anagen (growing) hairs (in words),[1],increase the number of anagen hairs
same,number of telogen (resting) hairs (in words),[2],decrease the number of telogen hairs
